{"source": "paper PMC10101649", "binders": {"B1": {"name": "ADF7 (Arabidopsis actin-depolymerizing factor 7), endogenous in pollen (protein, UniProt Q67ZM4 1-137)", "chain": "MANAASGMAVEDECKLKFLELKSKRNYRFIIFRIDGQQVVVEKLGNPDETYDDFTASLPANECRYAVFDFDFITDENCQKSKIFFIAWSPDSSRVRMKMVYASSKDRFKRELDGIQVELQATDPSEMSFDIIKSRAL"}}, "target": "T1, CDPK16-6×His (Arabidopsis calcium-dependent protein kinase 16) (Arabidopsis) (UniProt Q7XJR9)", "T1 sequence": "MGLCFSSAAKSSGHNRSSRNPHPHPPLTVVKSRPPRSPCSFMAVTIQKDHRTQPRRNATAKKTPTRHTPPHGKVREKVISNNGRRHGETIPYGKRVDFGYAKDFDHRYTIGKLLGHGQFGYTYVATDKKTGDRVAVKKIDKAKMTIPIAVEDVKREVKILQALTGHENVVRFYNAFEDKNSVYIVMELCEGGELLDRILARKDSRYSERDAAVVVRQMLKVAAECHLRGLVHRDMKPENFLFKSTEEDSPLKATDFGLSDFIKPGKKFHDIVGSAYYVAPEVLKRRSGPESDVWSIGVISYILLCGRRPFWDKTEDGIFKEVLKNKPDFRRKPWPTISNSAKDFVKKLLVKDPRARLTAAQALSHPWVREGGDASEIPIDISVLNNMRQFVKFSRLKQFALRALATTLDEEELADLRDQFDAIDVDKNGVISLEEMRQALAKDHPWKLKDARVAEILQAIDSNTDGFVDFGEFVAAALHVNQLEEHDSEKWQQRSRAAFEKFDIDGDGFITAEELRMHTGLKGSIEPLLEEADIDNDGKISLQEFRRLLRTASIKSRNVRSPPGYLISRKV", "test": "affinity purification with mass spectrometry; Ni-NTA agarose bound with CDPK16-6×His incubated with total protein extract of WT pollen; 3 washes with protein extraction buffer; bound proteins separated by 15% SDS-PAGE, gel bands analysed by LC-MS/MS; only the target purified", "note": "Results are given in words; binding and its absence hold for the method and conditions named. Binding seen in cells or lysates may run through a third protein. These calls come from enrichment with a bait or labelling near it, and not all partners need be listed. Where a sequence is shown, tags or fusion partners need not be part of it."}
{"binder": "B1", "values": [{"measurement": "binding", "value": "binds"}]}
